PubChem BioAssay AID1671195 – Yale University | 2021
The whole screen tested about 22,000 reagents; shown is a part drawn at random. About 1,510 of all reagents (6.9%) count as active. 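Active includes knockdowns raising or lowering LDL uptake; positive z-scores mean more uptake, negative mean less.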

- Test: 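Genes whose knockdown alters LDL uptake in liver cancer cells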 (primary screen)
- Cells: human Huh7 hepatoma cells
- Reagents: siRNA pool against human genes, 18 nM
- Duration: about 2 to 2.5 days of knockdown, then 8 h LDL uptake
- Conditions: DiI-labelled LDL at 30 µg/ml for 8 h, in lipoprotein-deficient serum medium
- Detection: 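Per-cell DiI-LDL intensity by automated imaging; well means scaled to the plate median and given as a robust z-score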
- Direction: robust z-score: higher = more LDL uptake after knockdown
- Hit rule: 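a gene counts as active if at least two replicate z-scores exceed ±2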

CPLX4 [SID442894811]
- robust z-score, replicate 1: -0.0351
- robust z-score, replicate 2: -0.104
- robust z-score, replicate 3: -0.168
- Call: inactive

UBTF [SID442889849]
- robust z-score, replicate 1: 0.498
- robust z-score, replicate 2: 1.18
- robust z-score, replicate 3: -0.177
- Call: inactive

DCAF8L2 [SID442896910]
- robust z-score, replicate 1: -0.311
- robust z-score, replicate 2: -0.384
- robust z-score, replicate 3: -0.282
- Call: inactive

DCAF8L2 [SID442900831]
- robust z-score, replicate 1: -0.799
- robust z-score, replicate 2: -0.911
- robust z-score, replicate 3: -0.729
- Call: inactive

RCBTB1 [SID442892660]
- robust z-score, replicate 1: 0.292
- robust z-score, replicate 2: 0.203
- robust z-score, replicate 3: -0.0766
- Call: inactive

GLIDR [SID442892096]
- robust z-score, replicate 1: 0.185
- robust z-score, replicate 2: 0.146
- robust z-score, replicate 3: 0.298
- Call: inactive

OMP [SID442891285]
- robust z-score, replicate 1: 0.203
- robust z-score, replicate 2: 0.677
- robust z-score, replicate 3: 0.0386
- Call: inactive

C6 [SID442895217]
- robust z-score, replicate 1: 0.321
- robust z-score, replicate 2: -0.868
- robust z-score, replicate 3: 0.108
- Call: inactive

SUGCT [SID442885385]
- robust z-score, replicate 1: 1.07
- robust z-score, replicate 2: 1.92
- robust z-score, replicate 3: 1.61
- Call: inactive

C2orf78 [SID442890426]
- robust z-score, replicate 1: 0.171
- robust z-score, replicate 2: 0.728
- robust z-score, replicate 3: 0.357
- Call: inactive

C1orf54 [SID442903732]
- robust z-score, replicate 1: -1.92
- robust z-score, replicate 2: -1.03
- robust z-score, replicate 3: -1.17
- Call: inactive

NRSN2 [SID442893804]
- robust z-score, replicate 1: 0.386
- robust z-score, replicate 2: -0.235
- robust z-score, replicate 3: -0.126
- Call: inactive

MAGEA9 [SID442899521]
- robust z-score, replicate 1: -0.823
- robust z-score, replicate 2: -0.232
- robust z-score, replicate 3: -0.838
- Call: inactive

SMARCA5 [SID442895782]
- robust z-score, replicate 1: 0.0983
- robust z-score, replicate 2: -0.689
- robust z-score, replicate 3: -0.0274
- Call: inactive

FBP1 [SID442885409]
- robust z-score, replicate 1: 1.63
- robust z-score, replicate 2: 1.04
- robust z-score, replicate 3: 1.9
- Call: inactive

RNASE13 [SID442885558]
- robust z-score, replicate 1: 1.15
- robust z-score, replicate 2: 1.44
- robust z-score, replicate 3: 1.81
- Call: inactive

Sorted by “robust z-score, replicate 2” (descending): some entries from above
RCBTB1 [SID442892660]
- robust z-score, replicate 1: 0.292
- robust z-score, replicate 2: 0.203
- robust z-score, replicate 3: -0.0766
- Call: inactive

GLIDR [SID442892096]
- robust z-score, replicate 1: 0.185
- robust z-score, replicate 2: 0.146
- robust z-score, replicate 3: 0.298
- Call: inactive
